Laboratory results as given in article PMC10132971.
For at least one entry, the source does not settle the construct or the ends of the probe. The direction of at least one scale is not stated here.

Columns and labels:
[1] = system: Smc5/6 hexamer EQ mutant E1015Q,E1048Q (Saccharomyces cerevisiae (W303)); assay: mass photometry; details: 2.5 mM ATP, DNA-enhanced dimer fraction, indirect; Mass photometry: 40 mM Tris-HCl pH 7.5, 100 mM K-glutamate, 7.5 mM MgCl2, 30 C, 10 nM protein, 5 nM DNA; single-molecule: 2 nM Smc5/6; recombinant protein; protein details: TAP purification
[2] = system: Smc5/6 hexamer (lacking Nse5/6) (Saccharomyces cerevisiae (W303)); assay: mass photometry; details: Mass photometry: 40 mM Tris-HCl pH 7.5, 100 mM K-glutamate, 7.5 mM MgCl2, 30 C, 10 nM protein, 5 nM DNA, single-molecule: 2 nM Smc5/6, recombinant protein

For “TGGTTTTTATATGTTTTGTTATGTATTGTTTATTTTCCCTTTAATTTTAGGATATGAAAACAAGAATTTATCTGGTTTTTATATGTTTTGTTATGTATTGTTTATTTTCCCTTTAATTTTAGGATATGAAAACAAGAATTTATCTGGTTTTTATATGTTTTGTTATGTATTGTTTATTTTCCCTTTAATTTTAGGATATG (double strand) [200 bp linear dsDNA]”, the binding signal (% dimer fraction) [1] was 43, the binding signal (% dimer fraction) ([2]; 2.5 mM ATP, dimer fraction similar to DNA-unbound state, indirect) was 2 and the binding signal (% dimer fraction) ([2]; no ATP, DNA-enhanced dimerization (over tenfold), indirect read-out of DNA binding) was 40.
